Measured values from article PMC11733250.
Results are given in words; binding and its absence hold for the method and conditions named. Some binding calls cover weakened binding; strength is not graded here.

T1: FKBP51, Q13451
T1 chain: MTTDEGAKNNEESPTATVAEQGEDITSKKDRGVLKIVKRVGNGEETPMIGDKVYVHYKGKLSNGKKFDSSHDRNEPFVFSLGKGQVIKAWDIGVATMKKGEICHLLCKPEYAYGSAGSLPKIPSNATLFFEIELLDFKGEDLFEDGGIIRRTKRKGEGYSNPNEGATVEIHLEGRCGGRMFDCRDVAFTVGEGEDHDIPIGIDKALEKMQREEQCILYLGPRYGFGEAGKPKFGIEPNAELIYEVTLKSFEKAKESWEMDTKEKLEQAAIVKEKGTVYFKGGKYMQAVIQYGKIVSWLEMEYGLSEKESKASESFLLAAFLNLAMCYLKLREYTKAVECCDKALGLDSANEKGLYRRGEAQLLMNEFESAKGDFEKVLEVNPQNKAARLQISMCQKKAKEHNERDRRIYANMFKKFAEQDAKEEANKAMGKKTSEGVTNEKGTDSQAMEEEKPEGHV

T2: p23 wild-type (human co-chaperone p23, 160 amino acids) (human), Q15185
T2 chain: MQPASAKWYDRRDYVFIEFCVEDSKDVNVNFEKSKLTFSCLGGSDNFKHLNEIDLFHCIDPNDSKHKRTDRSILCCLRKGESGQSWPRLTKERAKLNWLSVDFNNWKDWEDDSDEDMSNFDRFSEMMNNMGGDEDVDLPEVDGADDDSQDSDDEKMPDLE


What was measured:
Settings in all cases: remark: other sources report otherwise
[1] = target: T1, FKBP51, Q13451; test: SEC-SAXS; 150 µM FKBP51 without or with equimolar p23, Shodex KW403-4F column; both purified
[2] = target: T1, FKBP51, Q13451; test: cross-linking; p23:FKBP51:tau 1:1:1 (25 µM each), 1 mM DSS, 30 min at 25 °C; SDS-PAGE band above 220 kDa cut out, trypsin digest, mass spectrometry (pLink); both purified
[3] = target: T1, FKBP51, Q13451; test: NMR titration; 1H-13C HMQC/methyl-TROSY of 13C-methyl (Leu, Val) labeled FKBP51 (50 µM); unlabeled p23 (two-, five-, ten-fold) or MEEVD peptide (five-, fifteen-fold) added; 25 mM HEPES, 10 mM KCl, 5 mM MgCl2, 1 mM DTT, pH 7.6, 100% D2O, 308 K; both purified
[4] = target: T2, p23 wild-type (human co-chaperone p23, …); test: NMR titration; competition: 1H-15N TROSY HSQC of 15N-labeled p23 (30 µM) with unlabeled FKBP51 (60 µM); MEEVD peptide added at ten-, twenty-, thirty-fold molar excess; 25 mM HEPES, 10 mM KCl, 5 mM MgCl2, 1 mM DTT, pH 7.2, 303 K; both purified
[5] = target: T2, p23 wild-type (human co-chaperone p23, …); test: NMR titration; 1H-15N TROSY HSQC of deuterated 15N-labeled p23 (WT 40 µM, 1-119 25 µM, R88A R93A 40 µM); unlabeled FKBP51 added at equimolar to three-fold or five-fold molar excess; 25 mM HEPES, 10 mM KCl, 5 mM MgCl2, 1 mM DTT, pH 7.2, 303 K; both purified

| binding [1] | binding [2] | binding [3] | binding [4] | binding [5] | Binder |
| --- | --- | --- | --- | --- | --- |
| binds | binds | binds | – | – | p23 wild-type (human co-chaperone p23, 160 amino acids), Q15185 1-160 (natural protein) MQPASAKWYDRRDYVFIEFCVEDSKDVNVNFEKSKLTFSCLGGSDNFKHLNEIDLFHCIDPNDSKHKRTDRSILCCLRKGESGQSWPRLTKERAKLNWLSVDFNNWKDWEDDSDEDMSNFDRFSEMMNNMGGDEDVDLPEVDGADDDSQDSDDEKMPDLE |
| – | – | – | binds | binds | FKBP51, Q13451 1-457 (protein) MTTDEGAKNNEESPTATVAEQGEDITSKKDRGVLKIVKRVGNGEETPMIGDKVYVHYKGKLSNGKKFDSSHDRNEPFVFSLGKGQVIKAWDIGVATMKKGEICHLLCKPEYAYGSAGSLPKIPSNATLFFEIELLDFKGEDLFEDGGIIRRTKRKGEGYSNPNEGATVEIHLEGRCGGRMFDCRDVAFTVGEGEDHDIPIGIDKALEKMQREEQCILYLGPRYGFGEAGKPKFGIEPNAELIYEVTLKSFEKAKESWEMDTKEKLEQAAIVKEKGTVYFKGGKYMQAVIQYGKIVSWLEMEYGLSEKESKASESFLLAAFLNLAMCYLKLREYTKAVECCDKALGLDSANEKGLYRRGEAQLLMNEFESAKGDFEKVLEVNPQNKAARLQISMCQKKAKEHNERDRRIYANMFKKFAEQDAKEEANKAMGKKTSEGVTNEKGTDSQAMEEEKPEGHV |
